These are yes or no findings as the source states them, for the method shown. Some binding calls cover weakened binding; strength is not graded here.
Legend:
[1] = biological target: PSMA on PC3-PIP (PSMA+) prostate cancer cells (UniProt Q04609); assay: flow cytometry on PC3-PIP cells
[2] = biological target: PSMA on PC3-PIP (PSMA+) prostate cancer cells (UniProt Q04609); assay: confocal microscopy of live cells, NB7cys labelled with Dylight 650, 15 min incubation
[3] = biological target: PSMA on PC3-PIP (PSMA+) prostate cancer cells (UniProt Q04609); assay: confocal imaging, Dylight 650-labelled protein, 15 min
[4] = biological target: PSMA on PC3-PIP (PSMA+) prostate cancer cells (UniProt Q04609); assay: FACS on PC3-PIP cells
[5] = biological target: PSMA on PC3-PIP (PSMA+) prostate cancer cells (UniProt Q04609); assay: flow cytometry on PC3-PIP cells, triplicate, means and SEM
[6] = biological target: purified extracellular domain of PSMA (prostate-specific membrane antigen), residues 44-750 (UniProt Q04609); assay: SPR (ProteOn XPR36), NB13 immobilised, soluble PSMA as analyte at 2.94-47.00 nM, BSA-referenced, 25 C
[7] = biological target: PSMA on PC3-PIP (PSMA+) prostate cancer cells (UniProt Q04609); assay: confocal imaging of live PC3-PIP cells, Dylight 488-labelled NB, 100 nM
[8] = biological target: purified extracellular domain of PSMA (prostate-specific membrane antigen), residues 44-750 (UniProt Q04609); assay: SAXS, radius of gyration of PSMA (0.5 mg/ml) mixed with rising NB concentrations; the filing reads the shift of Rg as complex formation
[9] = biological target: purified extracellular domain of PSMA (prostate-specific membrane antigen), residues 44-750 (UniProt Q04609); assay: ELISA of single bacterial colonies on PSMA, absorbance 450 nm, one point each, no control bar shown
[10] = biological target: purified extracellular domain of PSMA (prostate-specific membrane antigen), residues 44-750 (UniProt Q04609); assay: SAXS of PSMA mixed with NB
[11] = biological target: purified extracellular domain of PSMA (prostate-specific membrane antigen), residues 44-750 (UniProt Q04609); assay: SPR, figure legend
[12] = biological target: purified extracellular domain of PSMA (prostate-specific membrane antigen), residues 44-750 (UniProt Q04609); assay: SPR
[13] = biological target: purified extracellular domain of PSMA (prostate-specific membrane antigen), residues 44-750 (UniProt Q04609); assay: ELISA of bacterial colonies on PSMA, figure legend
[14] = biological target: PSMA on PC3-PIP (PSMA+) prostate cancer cells (UniProt Q04609); assay: flow cytometry on PC3-PIP (PSMA+) cells, anti-His-FITC detection, n=3
[15] = biological target: PSMA on PC3-PIP (PSMA+) prostate cancer cells (UniProt Q04609); assay: FACS on PC3-PIP cells, figure legend
[16] = biological target: purified extracellular domain of PSMA (prostate-specific membrane antigen), residues 44-750 (UniProt Q04609); assay: ELISA of bacterial colonies on PSMA
[17] = biological target: PSMA on PC3-PIP (PSMA+) prostate cancer cells (UniProt Q04609); assay: FACS titration on PC3-PIP cells, anti-His-FITC detection
[18] = biological target: purified extracellular domain of PSMA (prostate-specific membrane antigen), residues 44-750 (UniProt Q04609); assay: SPR (ProteOn XPR36), NB8 immobilised, soluble PSMA as analyte at 2.94-47.00 nM, BSA-referenced, 25 C
[19] = biological target: purified extracellular domain of PSMA (prostate-specific membrane antigen), residues 44-750 (UniProt Q04609); assay: SPR (ProteOn XPR36), NB37 immobilised, soluble PSMA as analyte at 2.94-47.00 nM, BSA-referenced, 25 C

Protein sequences, listed by entry. Tags and fused reporters are not part of them. Lines headed by an entry give the natural chain unless they say otherwise; changes in a name come on top. Residues count along the entry.
UniProt Q04609: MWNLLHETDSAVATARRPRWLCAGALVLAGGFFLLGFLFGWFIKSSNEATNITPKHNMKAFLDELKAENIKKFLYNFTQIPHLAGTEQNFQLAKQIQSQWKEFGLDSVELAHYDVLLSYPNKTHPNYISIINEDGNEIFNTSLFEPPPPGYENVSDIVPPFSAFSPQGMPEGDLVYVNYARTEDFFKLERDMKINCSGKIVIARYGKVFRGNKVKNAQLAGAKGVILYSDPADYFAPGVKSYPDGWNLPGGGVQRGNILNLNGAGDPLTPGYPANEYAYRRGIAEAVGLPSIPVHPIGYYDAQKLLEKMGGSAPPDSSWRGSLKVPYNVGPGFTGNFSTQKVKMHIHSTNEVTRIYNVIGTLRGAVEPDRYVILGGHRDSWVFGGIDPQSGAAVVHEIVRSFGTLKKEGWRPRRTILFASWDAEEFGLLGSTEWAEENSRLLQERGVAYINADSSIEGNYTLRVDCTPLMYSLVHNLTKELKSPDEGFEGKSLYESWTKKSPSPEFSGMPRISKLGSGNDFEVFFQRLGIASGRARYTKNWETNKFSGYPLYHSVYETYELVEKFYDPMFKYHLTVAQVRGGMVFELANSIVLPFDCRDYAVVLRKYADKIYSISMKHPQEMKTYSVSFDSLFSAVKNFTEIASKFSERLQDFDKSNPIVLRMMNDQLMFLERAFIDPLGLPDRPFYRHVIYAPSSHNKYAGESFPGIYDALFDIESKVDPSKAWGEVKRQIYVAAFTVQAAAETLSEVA
purified extracellular domain of PSMA (prostate-specific membrane antigen), residues 44-750: residues 44-750 of Q04609

Measured: binding

B1: NB7cys (NB7 with an added cysteine in the C-terminus) (VHH, not shown: small tags and cut ends)
VHH (part 1 of 2): QVQLQESGGGSVQAGGSLRLSCTAPGYTDSNYYMSWFRQAPGKEREWVAGVNTGRGSTSYADSVKGRFTISQDNAKNTMFLQMNSLKPEDTAIYYCAVAACHFCDSLPKTQDEYILWGQGTQVTVSSAAAYPYDVPDYGS
VHH (part 2 of 2): C
binds: [1] | [2] | [3] | [4] | [5]

B2: NB13 (VHH, not shown: small tags and cut ends)
VHH: QVQLQESGGGSVQTGGSLRLSCAASGYTASFSWIGYFRQAPGKEREGVAVINVGVGSTYYADSVKGRFTISRDNTENTISLEMNSLKPEDTGLYYCAGSLRWSRPPNPISEDAYNYWGQGTQVTVSS
binds: [6] | [7] | [8] | [9] | [10] | [11] | [12] | [13] | [14] | [15] | [16] | [17]

B3: NB8 (VHH, not shown: small tags and cut ends)
VHH: QVQLQESGGGSVQAGGSLRLSCARSGWPYSTYSMNWFRQAPGKEREAVAGISSTMSGIIFAESKAGQFTISQDNAKNTVYLQMNNLKPEDTAIYYCAARRDYSLSSSSDDFDYWGQGTQVTVSS
binds: [7] | [8] | [9] | [10] | [11] | [18] | [12] | [13] | [14] | [15] | [16] | [17]

B4: NB37 (VHH, not shown: small tags and cut ends)
VHH: QVQLQESGGGSVEAGGSLRLSCARSGWPYSTYSMNWFRQAPGKEREAVAGISSTMSGIIFAESKAGQFTISQDNAKNTVYLQMNNLKPEDTAIYYCAARRDYSLSSSSDDFDYWGQGTQVTVSS
binds: [7] | [8] | [9] | [10] | [11] | [12] | [13] | [14] | [19] | [15] | [16] | [17]
